The supplement of paper PMC12823440, “Inhibitors supercharge kinase turnover through native proteolytic circuits” (Nature, 2025)
Counter-ions that a name gives are not always drawn. The list shows a part of the results. The calls rarely recur for the same compound in another form.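 In K562 cells expressing nanoluciferase-fused kinases, luminescence was recorded at 4 h intervals between 2 and 18 h, normalized as percent of control with DMSO at 100% and a positive control at 0%. A significant (2 sigma) signal drop marks a time point as decreased. The authors' rule for a hit is not shown and takes in more than the number of time points.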

Amino acid sequences for entries named in this document (tags omitted). A change or cut given only in a name is not applied to a line headed by its entry.
UniProt P11362, whole entry, looked up: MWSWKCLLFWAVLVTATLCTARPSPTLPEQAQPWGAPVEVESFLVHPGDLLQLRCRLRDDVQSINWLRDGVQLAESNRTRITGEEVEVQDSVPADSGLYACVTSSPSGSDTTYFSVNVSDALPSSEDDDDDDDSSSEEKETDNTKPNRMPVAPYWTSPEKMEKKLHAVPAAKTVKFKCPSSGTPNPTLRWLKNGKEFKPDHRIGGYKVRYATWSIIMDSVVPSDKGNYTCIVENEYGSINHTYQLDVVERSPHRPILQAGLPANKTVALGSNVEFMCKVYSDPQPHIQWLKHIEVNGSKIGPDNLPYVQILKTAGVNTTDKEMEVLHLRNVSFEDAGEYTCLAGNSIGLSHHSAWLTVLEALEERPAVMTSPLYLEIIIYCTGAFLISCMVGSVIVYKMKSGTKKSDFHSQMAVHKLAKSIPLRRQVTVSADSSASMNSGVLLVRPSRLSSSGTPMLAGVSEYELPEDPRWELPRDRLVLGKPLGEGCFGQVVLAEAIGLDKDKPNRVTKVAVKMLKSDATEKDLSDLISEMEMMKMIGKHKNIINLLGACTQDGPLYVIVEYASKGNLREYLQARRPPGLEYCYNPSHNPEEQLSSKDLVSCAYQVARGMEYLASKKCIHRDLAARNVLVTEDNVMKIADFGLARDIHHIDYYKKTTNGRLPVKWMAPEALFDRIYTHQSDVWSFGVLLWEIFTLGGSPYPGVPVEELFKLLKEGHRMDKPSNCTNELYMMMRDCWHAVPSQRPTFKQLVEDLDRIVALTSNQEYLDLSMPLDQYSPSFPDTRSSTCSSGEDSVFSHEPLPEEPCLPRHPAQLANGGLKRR
UniProt P21802, whole entry, looked up: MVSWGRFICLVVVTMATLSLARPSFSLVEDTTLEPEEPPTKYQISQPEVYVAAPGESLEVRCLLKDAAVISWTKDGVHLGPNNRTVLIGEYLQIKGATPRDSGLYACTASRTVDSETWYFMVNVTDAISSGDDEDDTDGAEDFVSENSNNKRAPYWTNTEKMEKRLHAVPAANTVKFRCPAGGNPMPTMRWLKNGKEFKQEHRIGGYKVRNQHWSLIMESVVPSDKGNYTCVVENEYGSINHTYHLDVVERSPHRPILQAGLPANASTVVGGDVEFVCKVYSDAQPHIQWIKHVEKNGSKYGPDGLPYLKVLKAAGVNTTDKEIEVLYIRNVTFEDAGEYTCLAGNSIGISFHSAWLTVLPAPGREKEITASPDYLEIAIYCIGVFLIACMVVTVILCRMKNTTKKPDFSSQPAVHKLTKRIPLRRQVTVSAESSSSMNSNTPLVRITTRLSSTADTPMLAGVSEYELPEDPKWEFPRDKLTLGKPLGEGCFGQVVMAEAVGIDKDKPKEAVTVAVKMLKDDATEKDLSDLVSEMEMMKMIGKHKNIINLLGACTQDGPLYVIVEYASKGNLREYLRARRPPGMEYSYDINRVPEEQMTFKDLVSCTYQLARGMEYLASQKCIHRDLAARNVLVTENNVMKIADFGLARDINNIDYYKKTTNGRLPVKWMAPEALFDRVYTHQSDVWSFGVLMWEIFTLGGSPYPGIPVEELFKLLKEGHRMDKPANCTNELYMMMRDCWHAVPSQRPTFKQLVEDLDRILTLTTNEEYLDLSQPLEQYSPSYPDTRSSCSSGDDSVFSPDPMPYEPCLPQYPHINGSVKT
UniProt P06241, whole entry, looked up: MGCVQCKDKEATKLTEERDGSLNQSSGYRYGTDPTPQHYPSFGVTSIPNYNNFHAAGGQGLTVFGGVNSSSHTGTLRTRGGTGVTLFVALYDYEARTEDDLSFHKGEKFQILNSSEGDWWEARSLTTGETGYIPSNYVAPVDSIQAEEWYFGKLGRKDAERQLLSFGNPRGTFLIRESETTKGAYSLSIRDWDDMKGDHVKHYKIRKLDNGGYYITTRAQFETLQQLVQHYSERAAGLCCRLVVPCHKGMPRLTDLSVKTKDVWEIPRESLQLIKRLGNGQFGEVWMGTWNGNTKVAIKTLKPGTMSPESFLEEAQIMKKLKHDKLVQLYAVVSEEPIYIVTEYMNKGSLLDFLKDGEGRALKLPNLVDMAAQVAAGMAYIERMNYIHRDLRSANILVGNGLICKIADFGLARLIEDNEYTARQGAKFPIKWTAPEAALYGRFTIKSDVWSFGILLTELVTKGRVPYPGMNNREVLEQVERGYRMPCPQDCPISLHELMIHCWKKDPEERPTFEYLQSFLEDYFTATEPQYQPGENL
UniProt P49840: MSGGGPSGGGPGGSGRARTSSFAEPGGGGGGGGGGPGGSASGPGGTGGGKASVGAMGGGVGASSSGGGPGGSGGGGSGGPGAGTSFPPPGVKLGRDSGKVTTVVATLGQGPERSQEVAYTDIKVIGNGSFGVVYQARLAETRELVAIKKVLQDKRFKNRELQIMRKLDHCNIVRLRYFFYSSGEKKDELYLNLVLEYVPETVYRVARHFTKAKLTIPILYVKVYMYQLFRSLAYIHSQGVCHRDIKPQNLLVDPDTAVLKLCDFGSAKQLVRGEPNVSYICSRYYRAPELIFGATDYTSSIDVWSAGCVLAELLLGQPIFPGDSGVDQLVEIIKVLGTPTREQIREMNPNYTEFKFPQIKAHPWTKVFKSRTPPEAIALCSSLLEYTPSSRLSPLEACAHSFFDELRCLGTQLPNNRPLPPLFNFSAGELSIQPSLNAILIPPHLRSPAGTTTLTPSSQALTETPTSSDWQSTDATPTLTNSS
UniProt P23458: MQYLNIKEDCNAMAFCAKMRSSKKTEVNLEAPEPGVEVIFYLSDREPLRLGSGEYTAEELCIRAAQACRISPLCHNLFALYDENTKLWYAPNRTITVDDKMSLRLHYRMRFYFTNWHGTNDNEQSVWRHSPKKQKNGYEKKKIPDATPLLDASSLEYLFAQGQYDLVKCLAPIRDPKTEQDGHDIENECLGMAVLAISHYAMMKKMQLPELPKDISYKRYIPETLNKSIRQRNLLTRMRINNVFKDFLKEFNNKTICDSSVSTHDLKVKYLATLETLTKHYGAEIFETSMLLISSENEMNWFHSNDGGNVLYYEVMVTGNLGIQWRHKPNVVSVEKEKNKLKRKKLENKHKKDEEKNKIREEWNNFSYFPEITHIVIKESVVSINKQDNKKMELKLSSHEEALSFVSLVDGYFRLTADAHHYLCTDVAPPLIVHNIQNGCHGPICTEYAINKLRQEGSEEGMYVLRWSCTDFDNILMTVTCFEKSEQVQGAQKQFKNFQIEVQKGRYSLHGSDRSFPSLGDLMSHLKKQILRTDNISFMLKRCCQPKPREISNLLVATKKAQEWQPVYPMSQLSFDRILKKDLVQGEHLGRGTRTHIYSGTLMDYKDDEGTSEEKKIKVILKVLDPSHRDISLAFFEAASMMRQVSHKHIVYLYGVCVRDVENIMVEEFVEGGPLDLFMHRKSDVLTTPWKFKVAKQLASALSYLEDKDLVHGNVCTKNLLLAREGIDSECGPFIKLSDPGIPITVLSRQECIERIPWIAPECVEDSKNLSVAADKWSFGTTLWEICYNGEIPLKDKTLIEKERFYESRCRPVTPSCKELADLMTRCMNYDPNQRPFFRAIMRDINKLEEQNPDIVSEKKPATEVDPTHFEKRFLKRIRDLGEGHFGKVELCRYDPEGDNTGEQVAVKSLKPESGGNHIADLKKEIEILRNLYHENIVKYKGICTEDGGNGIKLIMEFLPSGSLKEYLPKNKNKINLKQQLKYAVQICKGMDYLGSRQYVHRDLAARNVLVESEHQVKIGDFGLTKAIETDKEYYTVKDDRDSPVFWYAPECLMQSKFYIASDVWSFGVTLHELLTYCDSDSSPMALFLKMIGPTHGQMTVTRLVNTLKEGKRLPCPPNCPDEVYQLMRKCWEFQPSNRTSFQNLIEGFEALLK
UniProt Q8IWU2: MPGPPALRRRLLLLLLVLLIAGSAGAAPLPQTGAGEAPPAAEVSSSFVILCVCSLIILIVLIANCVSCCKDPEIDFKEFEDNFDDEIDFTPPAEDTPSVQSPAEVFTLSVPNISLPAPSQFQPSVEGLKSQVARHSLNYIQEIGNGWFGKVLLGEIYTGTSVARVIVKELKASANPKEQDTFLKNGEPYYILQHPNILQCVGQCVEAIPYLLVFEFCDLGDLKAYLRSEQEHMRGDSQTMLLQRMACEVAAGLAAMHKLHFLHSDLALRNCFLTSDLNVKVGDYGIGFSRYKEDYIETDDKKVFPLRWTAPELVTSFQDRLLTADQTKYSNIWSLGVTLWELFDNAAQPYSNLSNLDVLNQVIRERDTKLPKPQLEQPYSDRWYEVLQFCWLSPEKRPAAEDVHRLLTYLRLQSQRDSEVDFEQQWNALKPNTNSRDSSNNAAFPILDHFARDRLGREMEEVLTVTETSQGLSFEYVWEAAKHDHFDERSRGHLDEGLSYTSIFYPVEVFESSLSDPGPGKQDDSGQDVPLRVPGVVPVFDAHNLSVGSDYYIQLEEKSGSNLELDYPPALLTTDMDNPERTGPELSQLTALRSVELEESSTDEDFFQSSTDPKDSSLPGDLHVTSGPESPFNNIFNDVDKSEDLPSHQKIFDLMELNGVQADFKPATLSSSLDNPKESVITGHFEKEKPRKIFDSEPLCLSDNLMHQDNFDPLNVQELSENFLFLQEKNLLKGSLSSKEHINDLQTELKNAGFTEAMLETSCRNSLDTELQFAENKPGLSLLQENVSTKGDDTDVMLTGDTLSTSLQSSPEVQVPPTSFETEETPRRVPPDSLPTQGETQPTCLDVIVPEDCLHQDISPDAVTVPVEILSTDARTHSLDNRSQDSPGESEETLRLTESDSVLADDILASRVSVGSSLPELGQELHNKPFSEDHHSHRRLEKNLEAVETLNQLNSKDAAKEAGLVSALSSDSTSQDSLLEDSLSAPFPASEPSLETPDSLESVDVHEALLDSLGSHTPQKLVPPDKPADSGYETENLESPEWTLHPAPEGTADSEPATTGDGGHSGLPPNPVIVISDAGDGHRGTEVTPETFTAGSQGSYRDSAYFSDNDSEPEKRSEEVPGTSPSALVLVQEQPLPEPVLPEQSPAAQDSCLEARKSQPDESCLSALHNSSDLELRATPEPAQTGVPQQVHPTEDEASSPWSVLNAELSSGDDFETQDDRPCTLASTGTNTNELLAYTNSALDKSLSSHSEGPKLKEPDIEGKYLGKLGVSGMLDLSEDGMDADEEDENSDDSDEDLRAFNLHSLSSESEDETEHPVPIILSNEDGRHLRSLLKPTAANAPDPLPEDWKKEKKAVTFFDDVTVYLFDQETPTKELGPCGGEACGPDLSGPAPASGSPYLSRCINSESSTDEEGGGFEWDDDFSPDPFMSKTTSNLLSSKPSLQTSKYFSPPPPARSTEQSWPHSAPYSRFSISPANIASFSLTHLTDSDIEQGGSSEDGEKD
UniProt Q12851: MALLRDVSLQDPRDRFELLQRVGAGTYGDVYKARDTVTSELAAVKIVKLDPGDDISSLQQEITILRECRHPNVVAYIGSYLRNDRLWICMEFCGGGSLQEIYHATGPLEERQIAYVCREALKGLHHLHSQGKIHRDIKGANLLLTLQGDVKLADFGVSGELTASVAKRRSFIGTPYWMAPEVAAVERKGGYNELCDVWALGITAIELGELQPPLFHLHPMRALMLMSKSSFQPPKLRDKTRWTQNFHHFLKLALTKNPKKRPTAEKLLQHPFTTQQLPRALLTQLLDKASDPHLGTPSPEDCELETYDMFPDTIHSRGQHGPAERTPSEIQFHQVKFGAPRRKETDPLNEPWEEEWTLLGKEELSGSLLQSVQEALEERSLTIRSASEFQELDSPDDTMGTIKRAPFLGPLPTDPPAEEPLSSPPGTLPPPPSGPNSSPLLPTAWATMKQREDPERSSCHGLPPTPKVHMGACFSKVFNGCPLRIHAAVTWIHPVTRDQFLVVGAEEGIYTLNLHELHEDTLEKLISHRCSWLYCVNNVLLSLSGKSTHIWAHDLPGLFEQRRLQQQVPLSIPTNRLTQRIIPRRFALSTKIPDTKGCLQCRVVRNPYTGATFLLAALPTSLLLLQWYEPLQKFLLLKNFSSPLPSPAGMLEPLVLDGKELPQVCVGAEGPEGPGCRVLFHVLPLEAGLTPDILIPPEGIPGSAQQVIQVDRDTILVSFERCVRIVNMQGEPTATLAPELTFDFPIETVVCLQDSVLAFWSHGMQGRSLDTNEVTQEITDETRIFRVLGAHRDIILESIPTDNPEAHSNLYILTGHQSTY

Tests used:
Assay in all cases: kinase-Nluc reporter destabilization hit call (1 = scored as downregulated) (binary); higher = compound decreases kinase abundance
Settings in all cases: K562, 2-18 h
[1] = target: ERN1 (UniProt O75460)
[2] = target: FGFR1 (UniProt P11362)
[3] = target: FGFR2 (UniProt P21802)
[4] = target: FGR (UniProt P09769)
[5] = target: FLT3 (UniProt P36888)
[6] = target: FYN (UniProt P06241)
[7] = target: GSK3A (UniProt P49840)
[8] = target: HER2 (UniProt P04626)
[9] = target: INSRR (UniProt P14616)
[10] = target: IRAK3 (UniProt Q9Y616)
[11] = target: JAK1 (UniProt P23458)
[12] = target: LCK (UniProt P06239)
[13] = target: LIMK1 (UniProt P53667)
[14] = target: LIMK2 (UniProt P53671)
[15] = target: LMTK2 (UniProt Q8IWU2)
[16] = target: LYN (UniProt P07948)
[17] = target: MAP2K1 (UniProt Q02750)
[18] = target: MAP2K2 (UniProt P36507)
[19] = target: MAP4K2 (UniProt Q12851)
[20] = target: FGFR3 (UniProt P22607)

Measured: kinase-Nluc reporter destabilization hit call

C/C=C1\C(=O)C[C@H]2[C@@H]3CCC4=CC(=O)CC[C@]4(C)[C@H]3CC[C@]12C [(Z)-Guggulsterone]
inactive: [1]; 10 µM 0 | [2]; 10 µM 0 | [3]; 10 µM 0 | [4]; 10 µM 0 | [5]; 10 µM 0 | [6]; 10 µM 0 | [7]; 10 µM 0 | [8]; 10 µM 0 | [9]; 10 µM 0 | [10]; 10 µM 0 | [11]; 10 µM 0 | [12]; 10 µM 0 | [13]; 10 µM 0 | [14]; 10 µM 0 | [15]; 10 µM 0 | [16]; 10 µM 0 | [17]; 10 µM 0 | [18]; 10 µM 0 | [19]; 10 µM 0

CN(C)C(=O)c1cc2cnc(Nc3ccc(N4CCNCC4)cn3)nc2n1C1CCCC1 [Ribociclib succinate]
inactive: [1]; 10 µM 0 | [2]; 10 µM 0 | [3]; 10 µM 0 | [20]; 10 µM 0 | [4]; 10 µM 0 | [5]; 10 µM 0 | [6]; 10 µM 0 | [7]; 10 µM 0 | [8]; 10 µM 0 | [9]; 10 µM 0 | [10]; 10 µM 0 | [11]; 10 µM 0 | [12]; 10 µM 0 | [13]; 10 µM 0 | [14]; 10 µM 0 | [15]; 10 µM 0 | [16]; 10 µM 0 | [17]; 10 µM 0 | [18]; 10 µM 0 | [19]; 10 µM 0

O=C(Nc1cnn2ccc(N3CCC[C@@H]3c3cc(F)ccc3F)nc12)N1CC[C@H](O)C1 [Larotrectinib sulfate]
inactive: [1]; 10 µM 0 | [2]; 10 µM 0 | [3]; 10 µM 0 | [20]; 10 µM 0 | [4]; 10 µM 0 | [5]; 10 µM 0 | [6]; 10 µM 0 | [7]; 10 µM 0 | [8]; 10 µM 0 | [9]; 10 µM 0 | [10]; 10 µM 0 | [11]; 10 µM 0 | [12]; 10 µM 0 | [13]; 10 µM 0 | [14]; 10 µM 0 | [15]; 10 µM 0 | [16]; 10 µM 0 | [17]; 10 µM 0 | [18]; 10 µM 0 | [19]; 10 µM 0

C#Cc1cccc(Nc2ncnc3cc(OCCOC)c(OCCOC)cc23)c1 [Erlotinib (Hydrochloride)]
inactive: [1]; 10 µM 0 | [2]; 10 µM 0 | [20]; 10 µM 0 | [4]; 10 µM 0 | [5]; 10 µM 0 | [6]; 10 µM 0 | [7]; 10 µM 0 | [8]; 10 µM 0 | [9]; 10 µM 0 | [10]; 10 µM 0 | [11]; 10 µM 0 | [13]; 10 µM 0 | [14]; 10 µM 0 | [15]; 10 µM 0 | [16]; 10 µM 0 | [17]; 10 µM 0 | [18]; 10 µM 0 | [19]; 10 µM 0
active: [3]; 10 µM 1

CNC(=O)c1ccccc1Nc1cc(Nc2ccc(N3CCOCC3)cc2OC)ncc1C(F)(F)F
inactive: [1]; 10 µM 0 | [2]; 10 µM 0 | [3]; 10 µM 0 | [20]; 10 µM 0 | [4]; 10 µM 0 | [5]; 10 µM 0 | [6]; 10 µM 0 | [7]; 10 µM 0 | [8]; 10 µM 0 | [9]; 10 µM 0 | [10]; 10 µM 0 | [11]; 10 µM 0 | [12]; 10 µM 0 | [13]; 10 µM 0 | [14]; 10 µM 0 | [15]; 10 µM 0 | [16]; 10 µM 0 | [17]; 10 µM 0 | [18]; 10 µM 0 | [19]; 10 µM 0

2 neighbouring entries from above:
C#Cc1cccc(Nc2ncnc3cc(OCCOC)c(OCCOC)cc23)c1 [Erlotinib (Hydrochloride)]
inactive: [1]; 10 µM 0 | [2]; 10 µM 0 | [20]; 10 µM 0 | [4]; 10 µM 0 | [5]; 10 µM 0 | [6]; 10 µM 0 | [7]; 10 µM 0 | [8]; 10 µM 0 | [9]; 10 µM 0 | [10]; 10 µM 0 | [11]; 10 µM 0 | [13]; 10 µM 0 | [14]; 10 µM 0 | [15]; 10 µM 0 | [16]; 10 µM 0 | [17]; 10 µM 0 | [18]; 10 µM 0 | [19]; 10 µM 0
active: [3]; 10 µM 1

CNC(=O)c1ccccc1Nc1cc(Nc2ccc(N3CCOCC3)cc2OC)ncc1C(F)(F)F
inactive: [1]; 10 µM 0 | [2]; 10 µM 0 | [3]; 10 µM 0 | [20]; 10 µM 0 | [4]; 10 µM 0 | [5]; 10 µM 0 | [6]; 10 µM 0 | [7]; 10 µM 0 | [8]; 10 µM 0 | [9]; 10 µM 0 | [10]; 10 µM 0 | [11]; 10 µM 0 | [12]; 10 µM 0 | [13]; 10 µM 0 | [14]; 10 µM 0 | [15]; 10 µM 0 | [16]; 10 µM 0 | [17]; 10 µM 0 | [18]; 10 µM 0 | [19]; 10 µM 0

(listing goes on)

CC(=O)c1c(C)c2cnc(Nc3ccc(N4CCNCC4)cn3)nc2n(C2CCCC2)c1=O [Palbociclib (isethionate)]
inactive: [1]; 10 µM 0 | [2]; 10 µM 0 | [3]; 10 µM 0 | [20]; 10 µM 0 | [4]; 10 µM 0 | [5]; 10 µM 0 | [6]; 10 µM 0 | [7]; 10 µM 0 | [8]; 10 µM 0 | [9]; 10 µM 0 | [10]; 10 µM 0 | [11]; 10 µM 0 | [13]; 10 µM 0 | [14]; 10 µM 0 | [15]; 10 µM 0 | [16]; 10 µM 0 | [17]; 10 µM 0 | [18]; 10 µM 0 | [19]; 10 µM 0

N#CC[C@H](C1CCCC1)n1cc(-c2ncnc3[nH]ccc23)cn1 [Ruxolitinib]
inactive: [1]; 10 µM 0 | [2]; 10 µM 0 | [3]; 10 µM 0 | [20]; 10 µM 0 | [4]; 10 µM 0 | [5]; 10 µM 0 | [6]; 10 µM 0 | [7]; 10 µM 0 | [8]; 10 µM 0 | [9]; 10 µM 0 | [10]; 10 µM 0 | [11]; 10 µM 0 | [12]; 10 µM 0 | [13]; 10 µM 0 | [14]; 10 µM 0 | [15]; 10 µM 0 | [16]; 10 µM 0 | [17]; 10 µM 0 | [18]; 10 µM 0 | [19]; 10 µM 0

C=CC(=O)Nc1cc2c(Nc3ccc(F)c(Cl)c3)ncnc2cc1C#CC(C)(C)N1CCN(C)CC1 [AV-412 (free base)]
active: [8]; 2.5 µM 1
inactive: [1]; 2.5 µM 0 | [2]; 2.5 µM 0 | [3]; 2.5 µM 0 | [20]; 2.5 µM 0 | [4]; 2.5 µM 0 | [5]; 2.5 µM 0 | [6]; 2.5 µM 0 | [7]; 2.5 µM 0 | [9]; 2.5 µM 0 | [10]; 2.5 µM 0 | [11]; 2.5 µM 0 | [12]; 2.5 µM 0 | [13]; 2.5 µM 0 | [14]; 2.5 µM 0 | [15]; 2.5 µM 0 | [16]; 2.5 µM 0 | [17]; 2.5 µM 0 | [18]; 2.5 µM 0 | [19]; 2.5 µM 0

C#Cc1cccc(Nc2ncnc3cc(OCCOC)c(OCCOC)cc23)c1 [Erlotinib]
inactive: [1]; 10 µM 0 | [2]; 10 µM 0 | [3]; 10 µM 0 | [20]; 10 µM 0 | [4]; 10 µM 0 | [5]; 10 µM 0 | [6]; 10 µM 0 | [7]; 10 µM 0 | [8]; 10 µM 0 | [9]; 10 µM 0 | [10]; 10 µM 0 | [11]; 10 µM 0 | [13]; 10 µM 0 | [14]; 10 µM 0 | [15]; 10 µM 0 | [16]; 10 µM 0 | [17]; 10 µM 0 | [18]; 10 µM 0 | [19]; 10 µM 0
